This is one part of the list. This is a noisy data set.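 Many melting curves are irregular; where none melted, Tm was taken as 64 °C.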
Compound: CCc1cnccc1C(=O)Nc1cc2c(cc1F)NC(=O)CC2
Assay: melting temperature shift (DMSO Tm minus MBE1-treated Tm) in cellular thermal proteome profiling; higher = less thermal stabilization by MBE1 (negative = stabilized by MBE1)
Conditions: A375

By UniProt entry, the sequences of proteins in these tests, tags left out. Where a name states a change or a piece, a line headed by the entry shows the natural chain unless it says otherwise.
UniProt P57682: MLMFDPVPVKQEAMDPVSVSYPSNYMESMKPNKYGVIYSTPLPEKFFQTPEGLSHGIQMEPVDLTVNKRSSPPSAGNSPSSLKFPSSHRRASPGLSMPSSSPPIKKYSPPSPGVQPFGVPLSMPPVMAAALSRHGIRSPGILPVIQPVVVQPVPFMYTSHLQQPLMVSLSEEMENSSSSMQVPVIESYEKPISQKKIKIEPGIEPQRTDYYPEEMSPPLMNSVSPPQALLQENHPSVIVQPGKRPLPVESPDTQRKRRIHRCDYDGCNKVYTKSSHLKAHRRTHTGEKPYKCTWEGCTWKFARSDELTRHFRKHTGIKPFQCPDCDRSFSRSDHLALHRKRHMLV
UniProt P58004: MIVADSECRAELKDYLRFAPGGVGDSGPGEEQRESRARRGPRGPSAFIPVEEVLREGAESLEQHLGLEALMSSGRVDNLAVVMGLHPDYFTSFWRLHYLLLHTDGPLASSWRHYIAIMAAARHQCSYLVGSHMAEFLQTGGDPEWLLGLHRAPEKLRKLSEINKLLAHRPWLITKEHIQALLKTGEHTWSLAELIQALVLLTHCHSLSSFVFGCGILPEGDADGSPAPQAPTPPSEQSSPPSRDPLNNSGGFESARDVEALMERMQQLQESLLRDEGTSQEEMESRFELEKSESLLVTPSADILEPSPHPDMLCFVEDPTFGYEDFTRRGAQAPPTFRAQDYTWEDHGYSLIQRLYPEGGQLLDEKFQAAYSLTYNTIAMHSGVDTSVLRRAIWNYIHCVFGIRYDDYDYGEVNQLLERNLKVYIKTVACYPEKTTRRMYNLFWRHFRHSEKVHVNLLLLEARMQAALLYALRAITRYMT
UniProt P63027, whole entry: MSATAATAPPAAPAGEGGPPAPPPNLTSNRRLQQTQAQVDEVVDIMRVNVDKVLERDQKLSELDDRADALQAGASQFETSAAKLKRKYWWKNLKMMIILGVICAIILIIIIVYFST
UniProt P60983, whole entry: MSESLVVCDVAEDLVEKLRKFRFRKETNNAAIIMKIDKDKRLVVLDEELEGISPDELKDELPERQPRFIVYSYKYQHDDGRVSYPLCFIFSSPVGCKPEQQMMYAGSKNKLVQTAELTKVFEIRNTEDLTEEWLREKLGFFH
UniProt P55201: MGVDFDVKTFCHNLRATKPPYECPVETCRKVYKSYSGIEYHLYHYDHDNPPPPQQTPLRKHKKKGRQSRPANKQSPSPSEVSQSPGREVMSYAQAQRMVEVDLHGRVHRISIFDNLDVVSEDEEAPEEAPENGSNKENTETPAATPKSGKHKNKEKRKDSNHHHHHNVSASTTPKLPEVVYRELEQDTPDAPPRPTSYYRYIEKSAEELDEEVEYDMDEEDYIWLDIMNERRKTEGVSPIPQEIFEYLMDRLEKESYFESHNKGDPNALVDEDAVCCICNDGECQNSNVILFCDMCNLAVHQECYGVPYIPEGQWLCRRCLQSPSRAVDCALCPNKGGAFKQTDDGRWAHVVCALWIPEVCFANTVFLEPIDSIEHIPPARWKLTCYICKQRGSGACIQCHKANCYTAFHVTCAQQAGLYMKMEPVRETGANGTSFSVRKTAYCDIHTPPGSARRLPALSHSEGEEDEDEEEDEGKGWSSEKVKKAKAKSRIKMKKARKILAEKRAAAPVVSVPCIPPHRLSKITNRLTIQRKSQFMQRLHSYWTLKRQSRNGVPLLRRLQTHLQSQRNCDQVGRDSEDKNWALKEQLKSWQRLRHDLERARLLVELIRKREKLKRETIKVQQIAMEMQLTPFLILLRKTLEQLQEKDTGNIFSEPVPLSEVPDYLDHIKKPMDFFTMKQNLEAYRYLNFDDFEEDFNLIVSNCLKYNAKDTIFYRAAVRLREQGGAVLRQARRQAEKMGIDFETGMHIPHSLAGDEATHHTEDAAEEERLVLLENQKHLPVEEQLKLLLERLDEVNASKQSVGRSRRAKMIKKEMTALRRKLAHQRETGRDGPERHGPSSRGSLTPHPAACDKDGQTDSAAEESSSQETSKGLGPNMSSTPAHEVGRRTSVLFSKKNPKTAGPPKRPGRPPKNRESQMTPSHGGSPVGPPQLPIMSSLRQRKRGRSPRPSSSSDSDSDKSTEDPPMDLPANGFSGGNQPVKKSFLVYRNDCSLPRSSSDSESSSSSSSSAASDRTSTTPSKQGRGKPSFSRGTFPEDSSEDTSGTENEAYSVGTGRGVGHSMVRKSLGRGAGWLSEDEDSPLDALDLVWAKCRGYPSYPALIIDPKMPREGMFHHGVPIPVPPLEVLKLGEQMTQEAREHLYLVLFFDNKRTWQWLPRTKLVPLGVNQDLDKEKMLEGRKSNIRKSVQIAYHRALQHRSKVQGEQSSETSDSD
UniProt P55290: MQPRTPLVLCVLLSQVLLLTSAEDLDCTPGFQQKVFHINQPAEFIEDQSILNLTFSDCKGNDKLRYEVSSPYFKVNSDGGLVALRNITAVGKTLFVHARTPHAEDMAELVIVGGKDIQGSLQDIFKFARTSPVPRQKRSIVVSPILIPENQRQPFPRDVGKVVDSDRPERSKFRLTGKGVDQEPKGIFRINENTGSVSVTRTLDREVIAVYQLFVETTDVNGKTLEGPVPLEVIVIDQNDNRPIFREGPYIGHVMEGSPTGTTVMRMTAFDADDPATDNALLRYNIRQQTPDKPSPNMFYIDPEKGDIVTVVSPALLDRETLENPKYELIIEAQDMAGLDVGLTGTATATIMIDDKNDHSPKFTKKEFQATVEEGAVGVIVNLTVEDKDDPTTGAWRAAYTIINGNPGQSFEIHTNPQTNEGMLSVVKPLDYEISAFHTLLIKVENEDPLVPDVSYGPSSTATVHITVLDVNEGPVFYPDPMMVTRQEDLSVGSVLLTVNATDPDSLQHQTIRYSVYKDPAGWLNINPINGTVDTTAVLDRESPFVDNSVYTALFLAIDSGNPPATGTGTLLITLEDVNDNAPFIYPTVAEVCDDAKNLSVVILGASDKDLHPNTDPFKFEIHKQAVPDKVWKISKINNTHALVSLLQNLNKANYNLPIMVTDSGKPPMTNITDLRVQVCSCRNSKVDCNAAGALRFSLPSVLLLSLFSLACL
UniProt P55209: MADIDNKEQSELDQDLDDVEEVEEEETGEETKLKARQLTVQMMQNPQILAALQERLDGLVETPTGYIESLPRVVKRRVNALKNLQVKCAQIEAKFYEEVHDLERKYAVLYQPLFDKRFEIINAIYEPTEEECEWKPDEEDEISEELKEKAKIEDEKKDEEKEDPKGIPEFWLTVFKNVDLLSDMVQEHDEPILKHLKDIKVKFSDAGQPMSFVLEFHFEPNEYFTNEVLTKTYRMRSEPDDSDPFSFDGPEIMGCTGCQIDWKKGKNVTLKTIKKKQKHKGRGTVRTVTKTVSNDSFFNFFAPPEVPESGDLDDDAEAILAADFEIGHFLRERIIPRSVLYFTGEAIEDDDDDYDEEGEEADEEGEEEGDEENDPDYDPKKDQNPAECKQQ
UniProt P53350, whole entry: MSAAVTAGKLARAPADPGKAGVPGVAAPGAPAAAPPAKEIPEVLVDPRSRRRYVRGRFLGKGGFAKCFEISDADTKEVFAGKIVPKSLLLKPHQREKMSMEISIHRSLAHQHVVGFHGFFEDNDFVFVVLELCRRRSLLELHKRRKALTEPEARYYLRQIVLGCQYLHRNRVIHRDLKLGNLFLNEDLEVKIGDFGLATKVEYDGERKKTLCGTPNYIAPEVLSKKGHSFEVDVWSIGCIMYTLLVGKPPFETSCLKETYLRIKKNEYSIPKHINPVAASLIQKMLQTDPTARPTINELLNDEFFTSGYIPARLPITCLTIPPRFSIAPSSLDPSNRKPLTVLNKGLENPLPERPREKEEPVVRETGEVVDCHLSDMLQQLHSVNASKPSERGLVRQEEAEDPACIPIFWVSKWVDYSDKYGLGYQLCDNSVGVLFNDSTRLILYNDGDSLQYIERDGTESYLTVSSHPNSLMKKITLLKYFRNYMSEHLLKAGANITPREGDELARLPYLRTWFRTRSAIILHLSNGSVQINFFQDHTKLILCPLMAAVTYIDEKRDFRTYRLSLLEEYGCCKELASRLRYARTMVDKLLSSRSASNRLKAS
UniProt P61962: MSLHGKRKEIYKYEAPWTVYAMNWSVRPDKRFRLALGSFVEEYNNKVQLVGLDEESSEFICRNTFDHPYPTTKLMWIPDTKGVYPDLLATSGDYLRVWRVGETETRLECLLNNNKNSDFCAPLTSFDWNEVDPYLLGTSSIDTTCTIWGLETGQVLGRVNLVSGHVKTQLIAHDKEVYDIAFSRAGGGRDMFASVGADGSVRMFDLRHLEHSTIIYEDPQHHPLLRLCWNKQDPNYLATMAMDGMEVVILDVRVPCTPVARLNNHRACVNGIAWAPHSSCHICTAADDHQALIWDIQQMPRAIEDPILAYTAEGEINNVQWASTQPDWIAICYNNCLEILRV
UniProt P60981: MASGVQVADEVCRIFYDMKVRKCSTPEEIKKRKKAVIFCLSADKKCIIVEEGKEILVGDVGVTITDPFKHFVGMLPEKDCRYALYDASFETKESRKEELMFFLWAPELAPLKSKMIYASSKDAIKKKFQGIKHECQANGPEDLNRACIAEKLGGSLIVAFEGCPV
UniProt P55268: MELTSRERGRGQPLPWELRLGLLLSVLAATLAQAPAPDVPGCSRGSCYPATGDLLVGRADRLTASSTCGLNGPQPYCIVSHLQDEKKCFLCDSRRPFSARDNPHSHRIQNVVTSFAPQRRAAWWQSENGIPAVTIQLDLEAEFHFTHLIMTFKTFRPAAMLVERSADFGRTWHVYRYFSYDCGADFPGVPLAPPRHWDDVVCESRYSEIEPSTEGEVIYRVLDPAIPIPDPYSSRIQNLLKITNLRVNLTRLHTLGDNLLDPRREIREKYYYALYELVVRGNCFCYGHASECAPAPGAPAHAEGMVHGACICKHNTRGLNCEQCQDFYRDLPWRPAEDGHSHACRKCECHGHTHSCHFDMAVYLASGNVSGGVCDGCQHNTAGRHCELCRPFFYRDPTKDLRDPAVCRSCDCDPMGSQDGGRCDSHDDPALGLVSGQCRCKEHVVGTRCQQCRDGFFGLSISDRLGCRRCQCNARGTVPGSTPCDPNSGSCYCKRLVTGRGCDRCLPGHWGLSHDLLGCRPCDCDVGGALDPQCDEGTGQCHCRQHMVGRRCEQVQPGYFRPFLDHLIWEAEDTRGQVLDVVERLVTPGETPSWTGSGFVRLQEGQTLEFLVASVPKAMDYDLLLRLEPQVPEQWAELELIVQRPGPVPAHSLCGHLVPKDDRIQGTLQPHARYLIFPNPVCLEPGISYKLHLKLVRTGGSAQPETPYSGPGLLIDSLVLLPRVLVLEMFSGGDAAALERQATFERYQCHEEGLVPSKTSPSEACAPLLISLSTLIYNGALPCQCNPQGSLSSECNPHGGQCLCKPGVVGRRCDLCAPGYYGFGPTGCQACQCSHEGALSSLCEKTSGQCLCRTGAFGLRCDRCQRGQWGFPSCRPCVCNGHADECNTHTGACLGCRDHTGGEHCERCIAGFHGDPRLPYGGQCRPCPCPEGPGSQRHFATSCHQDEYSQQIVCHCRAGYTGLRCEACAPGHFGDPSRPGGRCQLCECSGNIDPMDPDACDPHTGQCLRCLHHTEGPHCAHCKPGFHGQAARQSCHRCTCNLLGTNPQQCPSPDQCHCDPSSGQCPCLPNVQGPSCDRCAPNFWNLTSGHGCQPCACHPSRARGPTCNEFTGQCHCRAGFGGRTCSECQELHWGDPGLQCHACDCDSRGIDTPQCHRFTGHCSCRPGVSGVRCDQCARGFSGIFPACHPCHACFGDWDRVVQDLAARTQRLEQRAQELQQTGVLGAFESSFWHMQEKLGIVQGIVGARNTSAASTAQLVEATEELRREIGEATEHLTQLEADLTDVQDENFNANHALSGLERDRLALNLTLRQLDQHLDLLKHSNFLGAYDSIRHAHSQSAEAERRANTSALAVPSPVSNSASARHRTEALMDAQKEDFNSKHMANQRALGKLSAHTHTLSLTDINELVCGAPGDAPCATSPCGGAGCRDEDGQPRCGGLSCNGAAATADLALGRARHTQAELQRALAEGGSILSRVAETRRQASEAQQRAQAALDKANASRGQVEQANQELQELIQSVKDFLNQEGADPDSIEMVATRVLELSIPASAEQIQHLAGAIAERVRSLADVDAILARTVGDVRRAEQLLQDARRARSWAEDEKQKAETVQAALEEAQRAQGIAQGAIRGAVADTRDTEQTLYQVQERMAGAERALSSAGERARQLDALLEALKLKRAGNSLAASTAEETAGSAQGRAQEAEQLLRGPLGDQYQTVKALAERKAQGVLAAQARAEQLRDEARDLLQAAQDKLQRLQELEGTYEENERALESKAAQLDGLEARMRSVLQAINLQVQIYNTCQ
UniProt P63146, whole entry: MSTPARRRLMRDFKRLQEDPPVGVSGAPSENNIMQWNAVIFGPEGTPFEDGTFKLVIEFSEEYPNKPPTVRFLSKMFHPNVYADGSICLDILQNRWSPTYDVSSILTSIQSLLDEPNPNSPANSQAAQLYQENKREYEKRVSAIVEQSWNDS
UniProt P62304, whole entry: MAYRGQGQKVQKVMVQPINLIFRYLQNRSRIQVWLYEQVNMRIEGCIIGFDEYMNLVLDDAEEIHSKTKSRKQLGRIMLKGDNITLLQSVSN

| Target | melting temperature shift (MBE1 concentration: 100 nM) | melting temperature shift (MBE1 concentration: 1 uM) |
| --- | --- | --- |
| RPS6 (UniProt P62753) | -0.989 °C | -0.44 °C |
| UniProt P61803 | -1.56 °C | 0.458 °C |
| SNRPF (UniProt P62306) | 0.476 °C | 1.58 °C |
| UBE2G2 (UniProt P60604) | 1.39 °C | 0.696 °C |
| PPP4C (UniProt P60510) | -1.47 °C | 0.201 °C |
| UniProt P57682 | -0.912 °C | -6.08 °C |
| CAPZA1 (UniProt P52907) | -1.06 °C | 1.21 °C |
| UniProt P55199 | -0.243 °C | -0.455 °C |
| UBA52 (UniProt P62987) | -2.57 °C | -1.65 °C |
| PMS2 (UniProt P54278) | -0.513 °C | -0.423 °C |
| SESN2 (UniProt P58004) |  | -0.428 °C |
| UniProt P68032 | 0.319 °C | -5.2 °C |
| PCBD1 (UniProt P61457) |  | -2.79 °C |
| SLC5A3 (UniProt P53794) |  | -1.51 °C |
| COPA (UniProt P53621) | -0.116 °C | 0.128 °C |
| KPNA2 (UniProt P52292) | -0.448 °C | -0.519 °C |
| KIF11 (UniProt P52732) | -0.927 °C | -0.598 °C |
| UniProt P63027 | -4.2 °C | -1.92 °C |
| HDGF (UniProt P51858) | -1.05 °C | -0.309 °C |
| COPZ1 (UniProt P61923) | -1.6 °C | 0.228 °C |
| OXCT1 (UniProt P55809) | 0.0268 °C | 0.0469 °C |
| UniProt P56962 | 0.562 °C |  |
| RAB14 (UniProt P61106) | -0.714 °C | -0.697 °C |
| GMFB (UniProt P60983) | -2.63 °C |  |

| Target | melting temperature shift (MBE1 concentration: 100 nM) | melting temperature shift (MBE1 concentration: 1 uM) |
| --- | --- | --- |
| ATXN3 (UniProt P54252) | -0.593 °C | -1.24 °C |
| POLG (UniProt P54098) | 1.23 °C | -0.183 °C |
| CDC42 (UniProt P60953) | -1.33 °C | -0.932 °C |
| RPS15A (UniProt P62244) | -0.763 °C | 0.22 °C |
| RPL37A (UniProt P61513) | -0.69 °C | 0 °C |
| UniProt P62068 | -0.527 °C | 0.00671 °C |
| UniProt P55201 |  | -0.602 °C |
| EIF3B (UniProt P55884) | 0.0978 °C | -0.122 °C |
| MVD (UniProt P53602) | -0.255 °C | 0.0671 °C |
| USP14 (UniProt P54578) | 0.434 °C | 0.165 °C |
| YARS (UniProt P54577) | -0.245 °C | 0.0988 °C |
| UniProt P55290 | -3.46 °C | -2.94 °C |
| NAP1L1 (UniProt P55209) | 0.415 °C | 0.287 °C |
| NAPA (UniProt P54920) | -0.583 °C | -0.633 °C |
| RRP1 (UniProt P56182) | -0.762 °C | -1.28 °C |
| PLK1 (UniProt P53350) | 0.147 °C | 0.275 °C |
| VBP1 (UniProt P61758) | -1.4 °C | -1.38 °C |
| MTPN (UniProt P58546) | -0.506 °C | -0.11 °C |
| UniProt P62380 | 0.788 °C | -0.0122 °C |
| DCAF7 (UniProt P61962) | 0.867 °C | -0.0305 °C |
| DRG2 (UniProt P55039) | -0.11 °C | 0.391 °C |
| BID (UniProt P55957) | -1.69 °C | -2.51 °C |
| ATP6V0D1 (UniProt P61421) | -1.23 °C | -2.86 °C |
| FKBP1A (UniProt P62942) | -1.83 °C | -0.867 °C |

| Target | melting temperature shift (MBE1 concentration: 100 nM) | melting temperature shift (MBE1 concentration: 1 uM) |
| --- | --- | --- |
| PPP5C (UniProt P53041) | -0.287 °C | 0.83 °C |
| EPPK1 (UniProt P58107) | 0.629 °C | -0.409 °C |
| UniProt P60709 | -0.983 °C | 1.61 °C |
| TMEM33 (UniProt P57088) | -1.31 °C | -1.05 °C |
| DSTN (UniProt P60981) | -0.825 °C | -0.114 °C |
| UniProt P61018 | -0.235 °C | -1.09 °C |
| LAMB2 (UniProt P55268) | -0.805 °C | 0.318 °C |
| RHOA (UniProt P61586) | -1.58 °C | -3.45 °C |
| METAP1 (UniProt P53582) | -1.66 °C | -0.382 °C |
| HK2 (UniProt P52789) | -1.33 °C | -0.205 °C |
| SEC61A1 (UniProt P61619) | -0.845 °C | 0.0958 °C |
| ARPC4 (UniProt P59998) | -2.25 °C | -3.26 °C |
| HSPA2 (UniProt P54652) | -0.0201 °C | -0.248 °C |
| UBE2B (UniProt P63146) | -0.165 °C | 1.12 °C |
| UniProt P62304 | 0.57 °C | 0.773 °C |
| UniProt P54687 | -1.19 °C | -0.472 °C |
| NCBP2 (UniProt P52298) | 0.189 °C | 9.96 °C |
| EPHB4 (UniProt P54760) | -1.6 °C | -1.35 °C |
| SRP54 (UniProt P61011) | 0.678 °C | 0.299 °C |
| RACK1 (UniProt P63244) | -0.605 °C | -0.653 °C |
| AP2B1 (UniProt P63010) | -0.735 °C | 0.256 °C |
| UniProt P68133 | -0.27 °C | 20.3 °C |
| MFAP1 (UniProt P55081) | 0 °C | -4.19 °C |

Single records (already shown):
UniProt P68133 is listed with melting temperature shift (MBE1 concentration: 100 nM): -0.27 °C; melting temperature shift (MBE1 concentration: 1 uM): 20.3 °C
LAMB2 (UniProt P55268) is listed with melting temperature shift (MBE1 concentration: 100 nM): -0.805 °C; melting temperature shift (MBE1 concentration: 1 uM): 0.318 °C
RHOA (UniProt P61586) is listed with melting temperature shift (MBE1 concentration: 100 nM): -1.58 °C; melting temperature shift (MBE1 concentration: 1 uM): -3.45 °C
DSTN (UniProt P60981) is listed with melting temperature shift (MBE1 concentration: 100 nM): -0.825 °C; melting temperature shift (MBE1 concentration: 1 uM): -0.114 °C

— the supplement of paper PMC12595434, “Development of retinoid nuclear receptor pathway antagonists through targeting aldehyde dehydrogenase 1A3” (iScience, 2025)
